Results are given in words; binding and its absence hold for the method and conditions named. Binding seen in cells or lysates may run through a third protein. A yes stands for co-enrichment or nearness to the bait. Other partners may have been found.

The chains behind the UniProt entries cited, without tags or fusion partners. Where a name states a change or a piece, a line headed by the entry shows the natural chain unless it says otherwise.
UniProt Q13547: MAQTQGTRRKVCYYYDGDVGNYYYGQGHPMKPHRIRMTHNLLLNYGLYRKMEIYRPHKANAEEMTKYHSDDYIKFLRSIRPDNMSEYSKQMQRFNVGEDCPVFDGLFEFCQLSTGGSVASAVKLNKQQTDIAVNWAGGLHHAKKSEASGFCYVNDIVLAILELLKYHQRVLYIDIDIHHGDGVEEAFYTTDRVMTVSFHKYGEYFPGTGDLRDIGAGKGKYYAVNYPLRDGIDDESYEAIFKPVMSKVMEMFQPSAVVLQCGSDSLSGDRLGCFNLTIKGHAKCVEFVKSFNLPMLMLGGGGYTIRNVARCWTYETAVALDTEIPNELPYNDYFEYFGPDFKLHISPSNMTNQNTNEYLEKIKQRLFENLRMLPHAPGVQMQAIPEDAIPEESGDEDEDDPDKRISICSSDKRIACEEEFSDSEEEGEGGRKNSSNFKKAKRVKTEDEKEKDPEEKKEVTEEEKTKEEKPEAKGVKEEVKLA
UniProt Q9Z148: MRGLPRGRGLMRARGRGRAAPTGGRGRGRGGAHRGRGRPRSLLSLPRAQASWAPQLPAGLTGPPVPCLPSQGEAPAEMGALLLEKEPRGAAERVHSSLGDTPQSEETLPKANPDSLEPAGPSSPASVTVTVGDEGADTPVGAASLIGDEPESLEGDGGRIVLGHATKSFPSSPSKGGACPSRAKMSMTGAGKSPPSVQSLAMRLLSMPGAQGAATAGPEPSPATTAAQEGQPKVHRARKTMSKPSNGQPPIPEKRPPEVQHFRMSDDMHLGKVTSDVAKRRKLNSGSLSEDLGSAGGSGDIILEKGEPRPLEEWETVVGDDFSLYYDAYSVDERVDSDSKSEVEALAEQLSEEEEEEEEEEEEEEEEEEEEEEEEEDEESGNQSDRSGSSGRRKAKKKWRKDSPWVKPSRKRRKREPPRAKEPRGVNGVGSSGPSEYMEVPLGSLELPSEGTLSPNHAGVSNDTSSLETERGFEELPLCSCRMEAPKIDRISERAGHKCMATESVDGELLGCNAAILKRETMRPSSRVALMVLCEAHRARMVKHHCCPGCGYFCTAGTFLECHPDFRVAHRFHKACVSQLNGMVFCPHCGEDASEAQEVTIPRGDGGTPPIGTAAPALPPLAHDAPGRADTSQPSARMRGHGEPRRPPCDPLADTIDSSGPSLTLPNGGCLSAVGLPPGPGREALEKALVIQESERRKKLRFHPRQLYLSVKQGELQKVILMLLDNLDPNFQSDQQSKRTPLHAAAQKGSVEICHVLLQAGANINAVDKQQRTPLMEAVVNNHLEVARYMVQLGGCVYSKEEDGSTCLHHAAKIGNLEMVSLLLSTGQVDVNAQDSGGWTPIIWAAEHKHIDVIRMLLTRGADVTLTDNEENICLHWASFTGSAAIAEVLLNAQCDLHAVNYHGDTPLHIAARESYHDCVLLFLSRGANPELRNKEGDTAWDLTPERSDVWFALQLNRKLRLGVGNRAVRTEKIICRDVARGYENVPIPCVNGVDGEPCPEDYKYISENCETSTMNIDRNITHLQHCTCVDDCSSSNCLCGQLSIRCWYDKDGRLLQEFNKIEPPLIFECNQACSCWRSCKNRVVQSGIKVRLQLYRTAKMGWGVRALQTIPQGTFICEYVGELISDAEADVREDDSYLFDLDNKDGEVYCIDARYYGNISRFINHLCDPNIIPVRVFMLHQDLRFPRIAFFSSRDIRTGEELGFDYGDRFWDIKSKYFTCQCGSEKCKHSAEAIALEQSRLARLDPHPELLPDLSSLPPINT
UniProt Q8VHR5: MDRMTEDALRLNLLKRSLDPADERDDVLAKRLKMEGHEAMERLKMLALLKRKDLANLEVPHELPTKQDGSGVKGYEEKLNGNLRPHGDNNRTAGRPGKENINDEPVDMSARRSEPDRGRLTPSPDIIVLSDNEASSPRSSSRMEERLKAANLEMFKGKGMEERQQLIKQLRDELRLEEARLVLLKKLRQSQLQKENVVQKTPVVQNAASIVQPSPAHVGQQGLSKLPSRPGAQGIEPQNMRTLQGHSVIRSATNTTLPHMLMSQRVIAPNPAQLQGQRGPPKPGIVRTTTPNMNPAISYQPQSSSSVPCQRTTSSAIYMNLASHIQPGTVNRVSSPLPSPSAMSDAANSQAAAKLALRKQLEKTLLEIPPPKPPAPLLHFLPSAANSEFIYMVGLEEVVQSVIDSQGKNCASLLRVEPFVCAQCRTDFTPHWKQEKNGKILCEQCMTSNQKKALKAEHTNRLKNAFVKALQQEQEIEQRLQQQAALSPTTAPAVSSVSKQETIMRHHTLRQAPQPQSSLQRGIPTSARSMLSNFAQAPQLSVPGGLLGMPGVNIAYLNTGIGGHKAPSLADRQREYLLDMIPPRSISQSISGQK
UniProt Q9R190: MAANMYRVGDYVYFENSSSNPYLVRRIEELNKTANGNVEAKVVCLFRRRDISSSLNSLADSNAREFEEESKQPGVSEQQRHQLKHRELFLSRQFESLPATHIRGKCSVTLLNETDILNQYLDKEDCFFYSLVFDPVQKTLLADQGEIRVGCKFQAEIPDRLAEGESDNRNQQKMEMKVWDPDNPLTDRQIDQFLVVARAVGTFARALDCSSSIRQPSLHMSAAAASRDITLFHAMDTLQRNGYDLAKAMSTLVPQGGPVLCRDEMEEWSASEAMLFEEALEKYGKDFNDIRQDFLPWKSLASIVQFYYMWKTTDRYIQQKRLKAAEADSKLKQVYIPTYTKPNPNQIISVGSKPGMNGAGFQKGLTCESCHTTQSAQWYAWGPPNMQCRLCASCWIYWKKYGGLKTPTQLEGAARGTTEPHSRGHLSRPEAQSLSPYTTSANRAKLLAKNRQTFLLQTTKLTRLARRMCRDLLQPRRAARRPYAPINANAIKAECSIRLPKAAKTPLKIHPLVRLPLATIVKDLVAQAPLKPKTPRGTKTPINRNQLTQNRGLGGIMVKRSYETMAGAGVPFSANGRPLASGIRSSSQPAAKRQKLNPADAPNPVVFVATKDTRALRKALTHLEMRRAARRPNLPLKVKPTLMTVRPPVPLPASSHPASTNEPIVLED
UniProt Q8CHY6: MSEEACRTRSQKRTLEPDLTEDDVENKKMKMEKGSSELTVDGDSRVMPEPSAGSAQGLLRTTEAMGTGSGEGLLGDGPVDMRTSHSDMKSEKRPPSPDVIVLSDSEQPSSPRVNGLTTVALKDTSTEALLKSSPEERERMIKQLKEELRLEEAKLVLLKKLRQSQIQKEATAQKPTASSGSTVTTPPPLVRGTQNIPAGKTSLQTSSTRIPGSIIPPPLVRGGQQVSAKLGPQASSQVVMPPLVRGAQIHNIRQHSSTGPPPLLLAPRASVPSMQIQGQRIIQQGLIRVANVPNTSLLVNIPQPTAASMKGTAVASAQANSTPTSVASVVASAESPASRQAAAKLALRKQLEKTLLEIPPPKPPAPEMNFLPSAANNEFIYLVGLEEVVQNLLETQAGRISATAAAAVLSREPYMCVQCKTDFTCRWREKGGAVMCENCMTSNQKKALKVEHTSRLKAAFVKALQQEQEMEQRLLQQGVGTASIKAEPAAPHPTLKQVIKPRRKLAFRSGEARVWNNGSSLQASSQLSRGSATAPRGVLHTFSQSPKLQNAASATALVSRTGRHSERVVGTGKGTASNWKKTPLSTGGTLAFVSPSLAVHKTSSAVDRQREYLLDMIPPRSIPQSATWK
UniProt P56546: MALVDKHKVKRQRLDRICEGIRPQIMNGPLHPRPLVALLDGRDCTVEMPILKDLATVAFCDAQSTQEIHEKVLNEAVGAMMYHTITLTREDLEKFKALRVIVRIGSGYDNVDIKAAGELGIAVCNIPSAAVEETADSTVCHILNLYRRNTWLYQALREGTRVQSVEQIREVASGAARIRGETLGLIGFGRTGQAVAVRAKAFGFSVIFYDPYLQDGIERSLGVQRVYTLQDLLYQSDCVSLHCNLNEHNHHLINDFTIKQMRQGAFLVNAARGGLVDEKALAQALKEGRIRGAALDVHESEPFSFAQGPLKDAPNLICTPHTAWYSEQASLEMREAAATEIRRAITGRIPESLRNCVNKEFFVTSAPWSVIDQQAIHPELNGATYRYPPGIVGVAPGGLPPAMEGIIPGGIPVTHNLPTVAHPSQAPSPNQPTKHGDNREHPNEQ
UniProt Q3URK3: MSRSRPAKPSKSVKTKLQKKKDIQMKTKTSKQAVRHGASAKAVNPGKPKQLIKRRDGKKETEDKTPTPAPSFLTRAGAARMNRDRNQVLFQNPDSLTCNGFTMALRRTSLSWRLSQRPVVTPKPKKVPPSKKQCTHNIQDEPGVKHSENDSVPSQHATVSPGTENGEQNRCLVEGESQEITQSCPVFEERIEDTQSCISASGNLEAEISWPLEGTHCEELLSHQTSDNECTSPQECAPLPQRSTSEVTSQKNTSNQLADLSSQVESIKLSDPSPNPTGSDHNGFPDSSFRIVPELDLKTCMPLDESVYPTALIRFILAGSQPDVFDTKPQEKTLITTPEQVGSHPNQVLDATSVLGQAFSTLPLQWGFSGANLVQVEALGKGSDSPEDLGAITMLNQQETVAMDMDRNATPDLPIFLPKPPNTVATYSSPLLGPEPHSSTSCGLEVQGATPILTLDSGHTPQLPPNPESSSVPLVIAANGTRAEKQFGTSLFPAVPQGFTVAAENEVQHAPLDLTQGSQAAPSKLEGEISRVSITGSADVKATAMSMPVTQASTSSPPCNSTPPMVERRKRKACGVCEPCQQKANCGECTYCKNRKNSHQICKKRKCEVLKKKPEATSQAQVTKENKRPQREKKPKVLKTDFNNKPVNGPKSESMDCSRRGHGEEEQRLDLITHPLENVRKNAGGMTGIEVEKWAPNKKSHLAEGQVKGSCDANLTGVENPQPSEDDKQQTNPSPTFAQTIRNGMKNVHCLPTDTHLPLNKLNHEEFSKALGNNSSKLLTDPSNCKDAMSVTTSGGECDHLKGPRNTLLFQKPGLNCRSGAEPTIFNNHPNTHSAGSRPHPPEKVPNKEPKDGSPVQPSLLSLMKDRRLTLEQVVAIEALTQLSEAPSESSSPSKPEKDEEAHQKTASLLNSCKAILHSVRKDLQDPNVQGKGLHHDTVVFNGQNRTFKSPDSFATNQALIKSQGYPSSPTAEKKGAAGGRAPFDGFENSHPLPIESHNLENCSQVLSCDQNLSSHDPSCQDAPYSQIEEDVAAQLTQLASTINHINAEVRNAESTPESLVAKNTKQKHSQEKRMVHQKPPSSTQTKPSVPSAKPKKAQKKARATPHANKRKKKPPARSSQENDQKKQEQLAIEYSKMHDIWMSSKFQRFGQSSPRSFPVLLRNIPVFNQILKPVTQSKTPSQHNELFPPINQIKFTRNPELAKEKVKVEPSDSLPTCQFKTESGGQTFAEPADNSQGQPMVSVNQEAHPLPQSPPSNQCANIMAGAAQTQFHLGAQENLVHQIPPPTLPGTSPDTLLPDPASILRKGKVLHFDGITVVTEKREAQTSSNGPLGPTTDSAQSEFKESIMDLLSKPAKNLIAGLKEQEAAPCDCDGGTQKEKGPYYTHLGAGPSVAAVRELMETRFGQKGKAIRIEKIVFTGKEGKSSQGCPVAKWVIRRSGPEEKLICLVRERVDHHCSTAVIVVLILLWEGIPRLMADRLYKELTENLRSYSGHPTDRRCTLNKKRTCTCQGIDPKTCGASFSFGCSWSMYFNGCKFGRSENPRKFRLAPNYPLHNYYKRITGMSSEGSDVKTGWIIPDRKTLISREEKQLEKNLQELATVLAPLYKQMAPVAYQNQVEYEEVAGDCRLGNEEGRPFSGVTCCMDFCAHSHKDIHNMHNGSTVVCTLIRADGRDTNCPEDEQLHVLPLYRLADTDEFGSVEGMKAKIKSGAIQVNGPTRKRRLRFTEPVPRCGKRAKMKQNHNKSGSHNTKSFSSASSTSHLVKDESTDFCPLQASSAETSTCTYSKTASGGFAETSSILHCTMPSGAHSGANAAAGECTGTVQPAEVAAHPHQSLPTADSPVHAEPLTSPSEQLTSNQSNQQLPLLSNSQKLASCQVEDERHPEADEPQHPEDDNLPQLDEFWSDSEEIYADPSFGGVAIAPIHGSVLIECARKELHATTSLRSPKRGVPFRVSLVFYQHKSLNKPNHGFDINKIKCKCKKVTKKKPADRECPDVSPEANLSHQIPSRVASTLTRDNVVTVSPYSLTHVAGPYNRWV

B1: SUDS3 (endogenous, mouse ESCs) (protein, UniProt Q8BR65 1-328)
chain: MSAAGLLAPAPAPAAAPAAPEYYPEDEEELESAEDDERSCRGRESDEDTEDASETDLAKHDEEDYVEMKEQMYQDKLASLKRQLQQLQEGTLQEYQKRMKKLDQQYRERIRNAELFLQLETEQVERNYIKEKKAAVKEFEDKKVELKENLIAELEEKKKMIENEKLTMELTGDSMEVKPIMTRKLRRRPNDPVPIPDKRRKPAPAQLNYLLTDEQIMEDLRTLNKLKSPKRPASPSSPEHLPATPAESPAQRFEARIEDGKLYYDKRWYHKSQAIYLESKDNQKLSCVISSVGANEIWVRKTSDSTKMRIYVGQLQRGLFVIRRRSAA
B2: ZNF219 (endogenous, mouse ESCs) (protein, UniProt Q6IQX8 1-726)
chain: MEGSRPRILVGHLEPSPPAFDGELDLQRYSNGPGVSGTPGPGSPGMGAVGWSETRAGERRFPCPVCGKRFRFNSILALHLRAHPGAQAFQCPHCGHRAAQRALLRSHLRTHQPERPRSPAARLLLELEERALLREARLGRARSSGGMQSSPAAEGLARPQVPSSSAFRCPFCKGKFRTSAERERHLHILHRPWKCSLCSFGSSQEEELLHHSLTAHGASERPLAATSTPEPPPPPQQEPRSALEPEPEPEPRPEPDREANPAPTPAPPEEPPAPPEFRCQVCGQSFTQSWFLKGHMRKHKASFDHACPVCGRCFKEPWFLKNHMKVHTSKLGPLRAPGPGSAPARAPQPPDLSLLAYEPLGPALLLAPAPAPAERREPPSLLGYLSVRAGEVRPNGEGADPGGGRSYGGFRPLPSALPNRARRHRTEEPEEEEEVVEAEEESWARGRSLGSLTSLHPNPGEGSGQPAPAAGTQARSTATQEENGLLVGGTRSEAGRGATGKDCPFCGKSFRSAHHLKVHLRVHTGERPYKCPHCDYAGTQSGSLKYHLQRHHREQRSSAGPGPPPEPPPPSQRGSLQPQSGAKPTQASATWVEGTASTRPPSSSTGPGSRRKPASPGRTLRNGRGGEAEPLDLSLRAGPGGEAGAGGALHRCLFCPFATGAPELMALHLQVHHSRRARGRRQPRADTSPTYVRAPSGETPPSPPLEEEGSPGLSRSGEAGLGGQER

The test has as its target HDAC1-Flag (wild type), stably expressed in Hdac1/2 double knockout mouse ESCs (UniProt Q13547). The test can be described thus: affinity purification with mass spectrometry; Flag IP (anti-Flag on Protein G Dynabeads) of HDAC1-Flag WT, Y48E or E63R from extracts of Hdac1/2 DKO mouse ESCs 5 days after OHT; coIP buffer 250 mM NaCl, 20 mM Tris-HCl pH 7.5, 0.5% IGEPAL, 1 mM EDTA; 4°C overnight; LC-MS/MS; control DKO cells lacking a Flag epitope.
As to “EHMT2 (KMT1C/G9A) (endogenous, mouse ESCs) (from UniProt Q9Z148 1-1263)”, the binding entry is given as “binds”.
Under “MTA3 (endogenous, mouse ESCs) (from UniProt Q924K8 1-591)” stands “binds”; under “PARP1 (endogenous, mouse ESCs) (from UniProt P11103 1-1013)”, “binds”.
Under “GATA2B (endogenous, mouse ESCs) (from UniProt Q8VHR5 1-594)” stands “binds”; under “MTA2 (endogenous, mouse ESCs) (from UniProt Q9R190 1-668)”, “binds”.
In the case of “GATA2A (endogenous, mouse ESCs) (from UniProt Q8CHY6 1-629)” it was “binds”.
Consider “CTBP2 (endogenous, mouse ESCs) (from UniProt P56546 1-445)”, for which the binding entry is on record as “binds”.
Take “MTA1 (endogenous, mouse ESCs) (from UniProt Q8K4B0 1-715)”: the binding entry is listed as “binds”.
In the case of “TET1 (endogenous, mouse ESCs) (from UniProt Q3URK3 1-2039)” it was “binds”; in that of B1, “binds”.
Under B2 stands “binds”.

For the origin of these results see PMC12448893.
